These are yes or no findings as the source states them, for the method shown. Some binding calls cover weakened binding; strength is not graded here. Sequences can lack the tags named with a protein.

This assay concerns the target T1, HCMV UL141 (residues 30–279), C-terminal hexa-histidine tag, of the crystallised complex (human cytomegalovirus (HCMV), FIX strain) (UniProt Q6RJQ3).
T1 sequence: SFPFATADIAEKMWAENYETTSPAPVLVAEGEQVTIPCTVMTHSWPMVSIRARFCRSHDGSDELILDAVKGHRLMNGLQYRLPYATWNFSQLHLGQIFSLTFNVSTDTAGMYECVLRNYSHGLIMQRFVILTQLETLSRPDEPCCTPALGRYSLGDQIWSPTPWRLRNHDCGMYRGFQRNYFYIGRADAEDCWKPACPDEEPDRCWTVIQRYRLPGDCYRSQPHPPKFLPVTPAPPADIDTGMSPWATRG
As to the kind of experiment: crystal structure; both purified.

B1: HCMV UL141 (residues 30–279), C-terminal hexa-histidine tag, of the crystallised complex (domain or fragment, UniProt Q6RJQ3 30-279)
chain: SFPFATADIAEKMWAENYETTSPAPVLVAEGEQVTIPCTVMTHSWPMVSIRARFCRSHDGSDELILDAVKGHRLMNGLQYRLPYATWNFSQLHLGQIFSLTFNVSTDTAGMYECVLRNYSHGLIMQRFVILTQLETLSRPDEPCCTPALGRYSLGDQIWSPTPWRLRNHDCGMYRGFQRNYFYIGRADAEDCWKPACPDEEPDRCWTVIQRYRLPGDCYRSQPHPPKFLPVTPAPPADIDTGMSPWATRG
B1: the binding result is on record as “binds”.

The record behind these values is article PMC3605307.
